From the supplement of paper PMC3334620
In all, about 33,000 sequences were measured (“E-score (-0.5 to 0.5)”: median about -0.0034, highest 2% from about 0.25 on). The list shows a part of the results.

What follows are sequences tested against T1, Yap3 (UniProt P38749) (assay: PBM E-score (8-mer binding enrichment) (E-score (-0.5 to 0.5)); higher = stronger / more preferred TF binding). Settings: protein concentration: 100 nM; construct: GST-full length.
T1 sequence: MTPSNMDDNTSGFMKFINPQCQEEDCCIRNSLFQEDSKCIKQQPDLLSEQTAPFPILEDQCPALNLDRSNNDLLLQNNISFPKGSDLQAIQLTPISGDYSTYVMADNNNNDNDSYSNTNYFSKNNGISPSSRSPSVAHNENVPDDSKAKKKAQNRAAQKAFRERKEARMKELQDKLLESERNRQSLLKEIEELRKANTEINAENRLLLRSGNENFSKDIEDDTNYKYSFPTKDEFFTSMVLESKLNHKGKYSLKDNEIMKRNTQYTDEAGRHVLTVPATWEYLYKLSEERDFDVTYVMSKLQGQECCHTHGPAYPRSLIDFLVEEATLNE
Summary of the method: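 Full-length yeast transcription factors or their DNA-binding domains, GST-tagged and expressed with PURExpress, were applied at about 100-200 nM to universal all-10-mer Agilent arrays. These arrays had been made double-stranded by primer extension on fresh or once-stripped slides. Detection used fluorescent anti-GST, normalisation used masliner, and E-scores for ungapped eight-base words pooled with reverse complements came from the Universal PBM Analysis Suite.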

Sequence	PBM E-score
AACCACTT	0.0563
AGCTTCCC	-0.191
CTCCTACA	0.0315
CCGGATTC	0.0756
CATACAAC	0.141
AACCTGGA	-0.0762
CCCCTCAG	-0.24
ATTCGCGG	0.158
ACATCTCC	0.0357
ATGCTCAC	-0.0747
CCTTCGCC	-0.324
CAATTTAG	0.106
TCTCATAA	0.0375
CGGGTCGC	-0.149
TAGGTAAA	-0.0801
TGTAGAAA	0.0253
AAGTCTAA	-0.00741
GGACGGCC	-0.255
AACAATAT	0.329
ACAAACCC	0.0449
CACCGGAG	-0.177
AGGGGAGC	-0.384
CTAATTAA	0.135
AAACAATT	0.145
AAACGGTG	-0.00966

Sequence	PBM E-score
CTTAATGC	0.108
CATCCTTC	-0.00124
CGGTATAG	-0.0576
TACGCCCA	0.0336
AGTACACG	-0.124
GGTAACAA	0.252
CATACTAC	0.0922
AGAAACGG	0.0489
GCTGATTA	0.21
GACGCGTA	0.122
AGTCGCCG	-0.0223
AAGTTGTC	0.123
CAGCTCGA	-0.14
CTGTTCCC	-0.169
CGGGGATC	-0.418
GAAATCAC	0.181
AAAATTCT	-0.0112
CCGCTACC	-0.0126
ACCCAAAT	0.161
GATAGGGA	-0.0796
AGACACTA	0.0692
ATGTGGTC	0.139
TAAGTGCA	0.2
AATCATAA	0.222
ATGTCCCA	-0.17

Sequence	PBM E-score
GGATGCTA	-0.0998
ATTCCAAG	0.0692
CACTCGGA	0.0619
ACCCCGCT	-0.0798
TACCTGCA	0.0553
AACCACGT	-0.0393
ACTCCTGA	0.0624
GAGAAAGC	0.0794
CCAGTTGA	-0.118
GATAGATC	-0.119
AGTCAGTA	0.109
ATAATTTC	0.17
GCTCCTCA	-0.305
AGTCCTTC	-0.286
ATAGGAAA	0.211
GCCAAACC	-0.137
ATCCTATC	0.0904
GTGAGACA	0.105
ACGAACCC	-0.133
CCGAAGAA	-0.0268
TATACTCA	0.155
GCCGGCCA	0.0617
ACTCAACC	-0.00359
AATTCCGG	-0.00094
AGTCAGTC	-0.0469

Sequence	PBM E-score
GAGCTAAC	0.0153
ACCCCAAT	0.0033
CAAAGCAA	0.195
CGAGCGGC	-0.0247
CGATGCCG	-0.194
CCCATCCA	-0.104
AGAATTGC	0.141
CAATAACA	0.0825
CCAAGGAC	-0.21
CAAGCTGC	0.0459
AGTGCTAC	-0.0705
TCGATCAA	-0.0612
AGAACGCA	0.0488
TGAGCAAA	0.109
ACACCGAT	-0.138
CAATATAC	0.112
CTCGCGTC	0.0984
CCGGCGTC	-0.105
ACCGCATA	0.128
AGTTGACA	0.0993
CGTGCTTA	-0.0066
ACTATTCT	0.109
GCCATCCC	-0.192
CCTACATC	0.0258
GCTCATCA	-0.042

Sequence	PBM E-score
ACAGACAC	-0.0498
CACAAAAC	0.212
CCCCATCC	-0.233
GAATTATC	0.196
CGTGCATA	0.111
TTAGATAA	0.117
TCGGACAA	0.161
GACATCGC	-0.0744
ATAAGGTG	-0.00609
ATGGTCCA	-0.0556
CCCTAGGA	-0.166
AGGTACAT	-0.0473
CTCGTATC	0.164
CAACAGTC	-0.0135
CGGTTTCC	-0.176
AATCACGA	-0.0872
TCTGTCAA	0.0825
ATGTCCGC	-0.0298
CTGTCTGA	-0.15
GGTTAGAA	-0.0731
TACTAGAA	0.127
AACGGAGT	0.0613
ACGTAAGC	0.253
CGAGGTGC	0.0929
GCTAGCTA	-0.0775

Fetched one by one from above, 3 records:
Sequence	PBM E-score
CTGTCTGA	-0.15
GGACGGCC	-0.255
TCTGTCAA	0.0825

Further records follow:

Sequence	PBM E-score
ATCTCGTA	0.0784
AAGCTATA	-0.0235
GTTGCGTA	0.0691
CGAAATAC	0.151
AGGTCAAG	-0.167
CCCGCTTA	0.111
GCAGCTCC	-0.194
CGTAACGC	-0.0157
CAGCCATG	-0.0386
AGCAAATA	0.0245
GGCTCTAA	0.00316
CAAGGGTC	-0.0382
GGGTTGCA	-0.0127
AAGATTGC	-0.0678
CTGCGTGA	0.0181
GGTATGAA	0.146
AAAGTTAT	0.192
CCAGATAG	-0.0894
CGGTATTC	0.119
ATGGAGAC	0.0733
GAGCCCAA	0.0486
CTCGAGTC	0.00476
CATGCACC	-0.191
ATTATATC	0.16
GGCAGATA	-0.0297

Sequence	PBM E-score
CCCACCGA	-0.00222
TAATCTGA	0.109
ACGCTTTA	-0.00756
CAGGTCAC	-0.324
CGATTTCC	0.0259
CTATCTGA	-0.111
GCCGTCGC	-0.0101
CATCCACA	-0.015
CGACCATC	-0.17
ATGTGCTA	-0.0154
AACTTGAG	-0.163
GTCCCACA	0.157
AGTAACTC	-0.0684
ATCGAAGG	0.0368
GTGTGAAA	0.133
GTAGTACA	0.14
ATCACGAT	-0.192
GGACAGGA	-0.149
ACGCTAAG	-0.0131
CTTGTCCC	0.0214
ATTTCGAA	0.261
GAAACTCC	-0.238

Reformatted: entries from further up
CTATCTGA
  PBM E-score = -0.111
GCCGTCGC
  PBM E-score = -0.0101
CATCCACA
  PBM E-score = -0.015
CGACCATC
  PBM E-score = -0.17

A few values from the entries so far.
Entry for GAAACTCC under PBM E-score: -0.238
Entry for AGTCAGTC under PBM E-score: -0.0469
